Laboratory results as given in the supplement of paper PMC10849652.
The other results are listed elsewhere or left out.

The chains behind the UniProt entries cited, without tags or fusion partners. Where a name states a change or a piece, a line headed by the entry shows the natural chain unless it says otherwise.
UniProt Q6UX04: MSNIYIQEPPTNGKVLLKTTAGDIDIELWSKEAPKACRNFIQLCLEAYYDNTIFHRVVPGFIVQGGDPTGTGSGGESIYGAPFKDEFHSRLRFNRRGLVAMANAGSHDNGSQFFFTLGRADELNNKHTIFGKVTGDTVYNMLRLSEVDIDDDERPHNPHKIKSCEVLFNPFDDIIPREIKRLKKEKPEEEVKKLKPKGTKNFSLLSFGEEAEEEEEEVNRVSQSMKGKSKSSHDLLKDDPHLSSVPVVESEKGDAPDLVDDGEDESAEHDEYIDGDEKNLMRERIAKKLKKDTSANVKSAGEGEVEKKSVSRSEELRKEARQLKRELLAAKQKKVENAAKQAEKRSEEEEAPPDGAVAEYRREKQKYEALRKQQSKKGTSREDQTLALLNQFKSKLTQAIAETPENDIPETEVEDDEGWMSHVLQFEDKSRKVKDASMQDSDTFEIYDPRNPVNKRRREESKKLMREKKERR
UniProt Q9H773: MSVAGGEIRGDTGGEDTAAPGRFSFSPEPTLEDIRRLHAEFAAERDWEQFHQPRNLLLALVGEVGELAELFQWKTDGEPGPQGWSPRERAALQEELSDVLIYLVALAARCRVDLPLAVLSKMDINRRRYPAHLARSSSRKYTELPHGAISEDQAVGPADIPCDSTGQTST
UniProt P13498: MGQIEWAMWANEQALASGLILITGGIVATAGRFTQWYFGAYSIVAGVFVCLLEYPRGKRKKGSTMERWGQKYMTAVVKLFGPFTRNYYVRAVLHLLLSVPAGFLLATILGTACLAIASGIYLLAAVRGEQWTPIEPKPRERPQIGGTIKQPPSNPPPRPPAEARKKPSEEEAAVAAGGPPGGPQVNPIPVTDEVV
UniProt Q6PI48: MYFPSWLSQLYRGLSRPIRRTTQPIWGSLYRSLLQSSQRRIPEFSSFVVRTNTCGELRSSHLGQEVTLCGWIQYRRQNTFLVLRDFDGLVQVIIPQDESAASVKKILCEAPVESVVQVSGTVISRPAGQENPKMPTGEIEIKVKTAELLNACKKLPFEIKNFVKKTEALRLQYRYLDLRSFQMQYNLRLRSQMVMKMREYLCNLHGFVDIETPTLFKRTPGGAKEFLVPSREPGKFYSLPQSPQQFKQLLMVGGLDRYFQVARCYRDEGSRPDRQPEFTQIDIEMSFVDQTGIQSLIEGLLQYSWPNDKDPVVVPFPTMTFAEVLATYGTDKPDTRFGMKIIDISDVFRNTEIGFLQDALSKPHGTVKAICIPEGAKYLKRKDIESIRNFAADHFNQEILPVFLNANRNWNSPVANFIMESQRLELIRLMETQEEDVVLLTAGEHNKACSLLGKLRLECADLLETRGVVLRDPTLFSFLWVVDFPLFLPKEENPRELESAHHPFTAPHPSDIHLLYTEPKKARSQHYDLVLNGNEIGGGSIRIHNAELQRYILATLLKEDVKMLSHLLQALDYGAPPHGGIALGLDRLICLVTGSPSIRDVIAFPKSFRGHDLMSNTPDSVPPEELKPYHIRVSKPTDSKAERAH
UniProt Q12996: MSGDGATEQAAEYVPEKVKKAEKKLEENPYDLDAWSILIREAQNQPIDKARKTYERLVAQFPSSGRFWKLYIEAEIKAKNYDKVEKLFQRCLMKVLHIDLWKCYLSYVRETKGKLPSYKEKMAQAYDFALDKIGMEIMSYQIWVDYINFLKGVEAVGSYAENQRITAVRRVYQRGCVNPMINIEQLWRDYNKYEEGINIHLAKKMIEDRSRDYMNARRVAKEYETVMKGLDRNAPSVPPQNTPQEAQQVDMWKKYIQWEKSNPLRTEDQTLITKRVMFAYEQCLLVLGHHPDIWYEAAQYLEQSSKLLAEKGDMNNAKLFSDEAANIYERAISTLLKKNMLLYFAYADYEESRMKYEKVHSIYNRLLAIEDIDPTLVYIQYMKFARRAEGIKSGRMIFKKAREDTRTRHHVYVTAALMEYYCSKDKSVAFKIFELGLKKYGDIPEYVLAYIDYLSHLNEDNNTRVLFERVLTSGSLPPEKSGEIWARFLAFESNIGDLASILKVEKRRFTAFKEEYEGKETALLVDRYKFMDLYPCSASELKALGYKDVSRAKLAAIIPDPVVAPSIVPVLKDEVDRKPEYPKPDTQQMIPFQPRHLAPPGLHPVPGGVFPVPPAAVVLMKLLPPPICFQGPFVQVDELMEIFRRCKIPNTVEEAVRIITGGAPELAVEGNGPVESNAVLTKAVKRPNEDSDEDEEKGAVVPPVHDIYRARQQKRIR
UniProt Q9UJU6: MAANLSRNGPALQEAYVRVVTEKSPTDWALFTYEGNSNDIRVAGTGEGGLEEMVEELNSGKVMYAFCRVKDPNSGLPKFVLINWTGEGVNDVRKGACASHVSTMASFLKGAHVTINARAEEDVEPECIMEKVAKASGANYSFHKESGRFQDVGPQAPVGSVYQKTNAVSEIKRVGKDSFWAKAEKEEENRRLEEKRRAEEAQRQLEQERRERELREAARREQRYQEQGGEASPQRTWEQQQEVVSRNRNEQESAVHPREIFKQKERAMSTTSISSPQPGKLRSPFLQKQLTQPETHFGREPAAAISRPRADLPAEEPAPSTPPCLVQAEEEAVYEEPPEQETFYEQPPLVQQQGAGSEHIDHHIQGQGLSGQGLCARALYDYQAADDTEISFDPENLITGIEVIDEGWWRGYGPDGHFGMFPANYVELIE
UniProt O60888: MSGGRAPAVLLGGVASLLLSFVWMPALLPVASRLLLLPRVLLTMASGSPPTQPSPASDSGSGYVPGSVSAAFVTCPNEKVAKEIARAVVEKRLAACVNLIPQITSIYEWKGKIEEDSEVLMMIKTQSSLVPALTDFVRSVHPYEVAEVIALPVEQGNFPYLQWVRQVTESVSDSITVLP
UniProt Q7Z7A3: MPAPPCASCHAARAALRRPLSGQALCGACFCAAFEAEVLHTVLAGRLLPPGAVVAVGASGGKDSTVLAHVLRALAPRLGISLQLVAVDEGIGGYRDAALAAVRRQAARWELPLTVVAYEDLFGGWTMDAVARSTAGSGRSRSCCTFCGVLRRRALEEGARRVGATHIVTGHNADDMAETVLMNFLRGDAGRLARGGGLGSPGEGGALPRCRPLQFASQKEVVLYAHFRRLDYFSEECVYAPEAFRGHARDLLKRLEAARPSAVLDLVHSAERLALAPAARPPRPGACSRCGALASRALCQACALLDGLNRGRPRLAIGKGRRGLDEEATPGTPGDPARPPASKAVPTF
UniProt Q16643: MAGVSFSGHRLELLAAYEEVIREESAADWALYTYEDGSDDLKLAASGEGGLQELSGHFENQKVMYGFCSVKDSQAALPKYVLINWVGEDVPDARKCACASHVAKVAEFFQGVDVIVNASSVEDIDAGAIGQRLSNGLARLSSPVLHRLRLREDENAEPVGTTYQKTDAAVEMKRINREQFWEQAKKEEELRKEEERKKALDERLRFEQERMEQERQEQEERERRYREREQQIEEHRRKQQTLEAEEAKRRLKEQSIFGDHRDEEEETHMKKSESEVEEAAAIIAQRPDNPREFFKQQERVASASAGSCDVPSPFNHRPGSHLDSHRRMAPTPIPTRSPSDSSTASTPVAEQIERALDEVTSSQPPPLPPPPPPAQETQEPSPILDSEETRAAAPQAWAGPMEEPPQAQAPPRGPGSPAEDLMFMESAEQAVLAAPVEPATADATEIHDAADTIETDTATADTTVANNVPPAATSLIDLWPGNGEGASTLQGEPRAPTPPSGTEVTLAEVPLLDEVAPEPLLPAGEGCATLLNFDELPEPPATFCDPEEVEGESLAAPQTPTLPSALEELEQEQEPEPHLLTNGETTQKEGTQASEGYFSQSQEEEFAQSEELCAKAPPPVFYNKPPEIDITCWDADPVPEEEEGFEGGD
UniProt P35222, whole entry, looked up: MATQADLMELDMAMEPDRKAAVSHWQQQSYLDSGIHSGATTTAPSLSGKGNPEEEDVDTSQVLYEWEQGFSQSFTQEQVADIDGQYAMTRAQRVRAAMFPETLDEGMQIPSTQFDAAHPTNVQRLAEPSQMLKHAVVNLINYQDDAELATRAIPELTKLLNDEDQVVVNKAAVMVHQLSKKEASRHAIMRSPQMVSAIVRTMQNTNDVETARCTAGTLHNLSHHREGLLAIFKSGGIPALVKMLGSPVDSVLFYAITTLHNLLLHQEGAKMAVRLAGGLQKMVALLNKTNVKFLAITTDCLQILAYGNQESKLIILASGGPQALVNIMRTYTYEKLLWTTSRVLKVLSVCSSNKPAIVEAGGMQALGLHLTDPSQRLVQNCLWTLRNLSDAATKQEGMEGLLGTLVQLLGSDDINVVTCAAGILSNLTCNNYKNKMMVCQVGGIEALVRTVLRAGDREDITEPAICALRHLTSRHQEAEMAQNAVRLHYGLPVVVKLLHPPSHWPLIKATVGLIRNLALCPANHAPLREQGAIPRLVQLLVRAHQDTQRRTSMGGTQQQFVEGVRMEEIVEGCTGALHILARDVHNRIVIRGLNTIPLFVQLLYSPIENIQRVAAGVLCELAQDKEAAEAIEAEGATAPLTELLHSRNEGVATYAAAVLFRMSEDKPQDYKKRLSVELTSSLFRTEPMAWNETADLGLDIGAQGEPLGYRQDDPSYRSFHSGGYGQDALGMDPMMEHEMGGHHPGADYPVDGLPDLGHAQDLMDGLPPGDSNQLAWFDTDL
UniProt P09668: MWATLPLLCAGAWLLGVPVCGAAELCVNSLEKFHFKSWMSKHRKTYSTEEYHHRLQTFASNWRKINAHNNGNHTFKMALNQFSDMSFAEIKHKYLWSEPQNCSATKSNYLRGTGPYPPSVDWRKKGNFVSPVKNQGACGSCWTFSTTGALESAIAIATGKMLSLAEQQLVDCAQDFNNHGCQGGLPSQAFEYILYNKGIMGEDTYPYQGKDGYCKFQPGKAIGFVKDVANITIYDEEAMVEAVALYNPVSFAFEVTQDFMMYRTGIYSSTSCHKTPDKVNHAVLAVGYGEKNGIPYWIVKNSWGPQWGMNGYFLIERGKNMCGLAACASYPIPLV
UniProt Q9UHQ9: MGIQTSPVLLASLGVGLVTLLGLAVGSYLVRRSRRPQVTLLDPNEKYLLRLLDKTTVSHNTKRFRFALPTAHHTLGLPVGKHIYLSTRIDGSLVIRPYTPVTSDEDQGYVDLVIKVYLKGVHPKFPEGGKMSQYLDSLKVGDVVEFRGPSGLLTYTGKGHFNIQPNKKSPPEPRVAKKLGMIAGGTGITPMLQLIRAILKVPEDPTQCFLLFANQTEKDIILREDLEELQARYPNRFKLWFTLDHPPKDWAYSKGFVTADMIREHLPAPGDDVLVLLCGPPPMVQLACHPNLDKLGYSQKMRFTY
UniProt Q93034, whole entry, looked up: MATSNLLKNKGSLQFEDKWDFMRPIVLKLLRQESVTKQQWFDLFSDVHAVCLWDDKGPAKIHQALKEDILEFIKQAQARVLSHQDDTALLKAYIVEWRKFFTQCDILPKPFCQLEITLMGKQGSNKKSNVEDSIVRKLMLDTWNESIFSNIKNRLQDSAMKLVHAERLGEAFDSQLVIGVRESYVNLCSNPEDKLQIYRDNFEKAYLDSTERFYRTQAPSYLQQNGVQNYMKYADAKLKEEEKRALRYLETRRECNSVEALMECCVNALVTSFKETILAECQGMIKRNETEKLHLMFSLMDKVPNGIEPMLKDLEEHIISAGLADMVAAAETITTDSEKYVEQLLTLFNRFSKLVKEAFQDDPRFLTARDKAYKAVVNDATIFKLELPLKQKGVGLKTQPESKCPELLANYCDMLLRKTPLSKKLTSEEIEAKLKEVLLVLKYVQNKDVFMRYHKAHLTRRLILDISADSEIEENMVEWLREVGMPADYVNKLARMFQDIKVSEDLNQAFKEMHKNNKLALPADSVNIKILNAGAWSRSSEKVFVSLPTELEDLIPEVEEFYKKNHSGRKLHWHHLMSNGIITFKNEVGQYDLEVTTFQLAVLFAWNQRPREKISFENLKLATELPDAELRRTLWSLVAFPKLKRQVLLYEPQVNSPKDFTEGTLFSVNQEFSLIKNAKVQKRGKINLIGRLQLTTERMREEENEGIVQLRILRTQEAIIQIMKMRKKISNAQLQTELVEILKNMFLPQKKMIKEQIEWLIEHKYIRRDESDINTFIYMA
UniProt Q5QP82: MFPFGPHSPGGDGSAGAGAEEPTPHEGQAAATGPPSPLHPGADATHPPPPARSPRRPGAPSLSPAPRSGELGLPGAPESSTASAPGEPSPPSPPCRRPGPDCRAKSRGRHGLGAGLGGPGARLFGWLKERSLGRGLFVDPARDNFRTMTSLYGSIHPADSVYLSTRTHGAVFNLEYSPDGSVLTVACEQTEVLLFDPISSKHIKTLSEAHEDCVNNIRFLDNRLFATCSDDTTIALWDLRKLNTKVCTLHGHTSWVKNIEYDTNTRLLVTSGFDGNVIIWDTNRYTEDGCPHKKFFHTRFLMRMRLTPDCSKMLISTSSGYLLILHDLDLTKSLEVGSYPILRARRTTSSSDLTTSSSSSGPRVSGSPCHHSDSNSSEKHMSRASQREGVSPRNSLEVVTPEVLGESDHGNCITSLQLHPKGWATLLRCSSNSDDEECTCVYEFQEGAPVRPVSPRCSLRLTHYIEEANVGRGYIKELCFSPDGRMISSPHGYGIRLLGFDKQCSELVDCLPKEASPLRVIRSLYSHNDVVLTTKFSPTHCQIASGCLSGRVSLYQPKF

Columns and labels:
Test in all cases: log2 fold change, soluble protein after heating vs DMSO (PISA); higher = thermal stabilisation; K562 cells, 10 uM, 30 min; active = over 0.2 and 3.5 SD of the protein, either way, in both replicates (recomputed)
[1] = compound: NC(=O)Nc1cc(-c2cccc(F)c2)sc1C(=O)N[C@H]1CCCNC1
Procedure, shortened: (§1)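 For each measurement, 10 μM compound was applied for 30 min to K562 cells at 2×10^6 cells/mL. Aliquots were heated for 3 min across 48°C-58°C, pooled, and extracted in PBS with 0.5% NP-40 at 4°C; the supernatant after 21,000xg for 90 min was soluble protein. This was quantified by TMTpro 16plex LC-MS/MS with channel sums equalised, and thermal stability was reported relative to control samples from duplicates, on a log2 fold-change scale.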

[2] = compound: NC(=O)c1cnc(N[C@@H]2CCCC[C@@H]2N)nc1Nc1cccc(-n2nccn2)c1
Procedure, shortened: as §1

[3] = compound: NC1(c2ccc(-c3nc4ccn5c(=O)[nH]nc5c4cc3-c3ccccc3)cc2)CCC1
Procedure, shortened: as §1

[4] = compound: NCC(=O)Nc1ccc(-n2nc(C(F)(F)F)cc2-c2ccc3c(ccc4ccccc43)c2)cc1
Procedure, shortened: as §1

entinostat = compound: Nc1ccccc1NC(=O)c1ccc(CNC(=O)OCc2cccnc2)cc1 [entinostat]
Procedure, shortened: as §1

vorinostat = compound: O=C(CCCCCCC(=O)Nc1ccccc1)NO [vorinostat]
Procedure, shortened: as §1

citarinostat = compound: O=C(CCCCCCNC(=O)c1cnc(N(c2ccccc2)c2ccccc2Cl)nc1)NO [citarinostat]
Procedure, shortened: as §1

silmitasertib = compound: O=C(O)c1ccc2c(c1)nc(Nc1cccc(Cl)c1)c1ccncc12 [silmitasertib]
Procedure, shortened: as §1

[5] = compound: O=C1NC(=O)C(c2cnc3ccccn23)=C1c1cn2c3c(cc(F)cc13)CN(C(=O)N1CCCCC1)CC2
Procedure, shortened: as §1

[6] = compound: c1cc(OCCN2CCCCC2)cc(-c2n[nH]c3ccc(-c4nnc[nH]4)cc23)c1
Procedure, shortened: as §1

entospletinib = compound: c1cn2cc(-c3ccc4cn[nH]c4c3)nc(Nc3ccc(N4CCOCC4)cc3)c2n1 [entospletinib]
Procedure, shortened: as §1

| Target | log2 fold change [1] | log2 fold change [2] | log2 fold change [3] | log2 fold change [4] | log2 fold change (entinostat) | log2 fold change (vorinostat) | log2 fold change (citarinostat) | log2 fold change (silmitasertib) | log2 fold change [5] | log2 fold change [6] | log2 fold change (entospletinib) |
| --- | --- | --- | --- | --- | --- | --- | --- | --- | --- | --- | --- |
| CWC27 (UniProt Q6UX04) | inactive: -0.062 | inactive: 0.016 | inactive: -0.142 | inactive: -0.103 | inactive: 0.113 | inactive: 0.062 | inactive: 0.089 | inactive: 0.062 | inactive: -0.092 | inactive: 0.026 |  |
| DCTPP1 (UniProt Q9H773) | inactive: -0.051 | inactive: 0.117 | inactive: -0.014 | inactive: 0.028 | inactive: 0.062 | inactive: -0.093 | inactive: 0.005 | inactive: -0.003 | inactive: -0.001 | inactive: 0.008 |  |
| CYBA (UniProt P13498) | inactive: -0.028 | inactive: -0.141 | inactive: -0.044 | inactive: -0.13 | inactive: -0.004 | inactive: 0.018 | inactive: -0.01 | inactive: 0 | inactive: -0.01 | inactive: -0.041 |  |
| DARS2 (UniProt Q6PI48) | inactive: 0.003 | inactive: 0.005 | inactive: -0.016 | inactive: 0.027 | inactive: -0.029 | inactive: 0.017 | inactive: 0.052 | inactive: 0.027 | inactive: 0.004 | inactive: -0.025 | inactive: -0.025 |
| CSTF3 (UniProt Q12996) | inactive: 0.011 | inactive: -0.027 | inactive: -0.046 | inactive: -0.032 | inactive: -0.032 | inactive: -0.032 | inactive: -0.021 | inactive: 0.029 | inactive: 0.027 | inactive: 0.012 |  |
| DBNL isoform 3 (UniProt Q9UJU6) | inactive: 0.021 | inactive: -0.022 | inactive: -0.109 | inactive: -0.061 | inactive: -0.003 | inactive: -0.01 | inactive: 0.063 | inactive: 0.058 | inactive: 0.012 | inactive: 0.007 |  |
| CTSZ (UniProt Q9UBR2) | inactive: -0.029 | inactive: -0.005 | active: -0.511 | inactive: 0.044 | inactive: -0.023 | inactive: 0.013 | inactive: 0.019 | inactive: 0.008 | inactive: -0.047 | inactive: 0.006 |  |
| DCAF6 isoform 3 (UniProt Q58WW2) | inactive: 0 | inactive: 0.019 | inactive: 0.026 | inactive: 0.007 | inactive: -0.005 | inactive: 0.003 | inactive: 0.021 | inactive: 0.045 | inactive: -0.009 | inactive: -0.008 |  |
| DCUN1D1 (UniProt Q96GG9) | inactive: -0.024 | inactive: -0.048 | inactive: -0.102 | inactive: -0.01 | inactive: 0.016 | inactive: 0.002 | inactive: 0.054 | inactive: 0.002 | inactive: -0.098 | inactive: -0.02 |  |
| DAB2 (UniProt P98082) | inactive: -0.006 | inactive: -0.033 | inactive: -0.124 | inactive: 0.016 | inactive: -0.026 | inactive: -0.066 | inactive: 0.037 | inactive: 0.102 | inactive: 0.001 | inactive: -0.041 |  |
| CUTA isoform 2 (UniProt O60888) | inactive: -0.022 | inactive: 0.153 | inactive: 0.013 | inactive: 0.063 | inactive: 0.019 | inactive: -0.005 | inactive: 0.113 | inactive: -0.031 | inactive: -0.132 | inactive: -0.046 |  |
| CTU1 (UniProt Q7Z7A3) | inactive: 0.038 | inactive: -0.015 | inactive: -0.199 | inactive: -0.142 | inactive: 0.023 | inactive: 0.075 | inactive: 0.049 | inactive: 0.021 | inactive: 0 | inactive: 0.008 |  |
| CUX1 isoform 2 (UniProt Q13948) | inactive: -0.027 | inactive: -0.031 | inactive: -0.033 | inactive: -0.026 | active: 0.343 | inactive: 0.076 | inactive: 0.137 | inactive: -0.016 | inactive: -0.047 | inactive: -0.03 |  |
| DBN1 isoform 3 (UniProt Q16643) | inactive: 0.098 | inactive: 0.027 | inactive: -0.039 | inactive: -0.003 | inactive: -0.036 | inactive: 0.128 | inactive: -0.032 | inactive: 0.066 | inactive: -0.03 | inactive: -0.053 |  |
| CTNNB1 (UniProt P35222) | inactive: -0.14 | inactive: -0.06 | inactive: -0.18 | inactive: -0.2 | inactive: -0.078 | inactive: -0.001 | inactive: 0.093 | inactive: 0.03 | active: 1.3 | inactive: -0.107 |  |
| CTSH (UniProt P09668) | inactive: 0.012 | inactive: 0.029 | inactive: 0.032 | inactive: 0.04 | inactive: -0.002 | inactive: -0.01 | inactive: -0.02 | inactive: 0.005 | inactive: 0.022 | inactive: 0.197 |  |
| CSTF2 (UniProt P33240) | inactive: 0.015 | inactive: -0.054 | inactive: 0.086 | inactive: -0.031 | inactive: -0.028 | inactive: -0.08 | inactive: -0.011 | inactive: 0.07 | inactive: -0.049 | inactive: -0.042 |  |
| CYB5R1 (UniProt Q9UHQ9) | inactive: -0.022 | inactive: -0.044 | inactive: -0.01 | inactive: -0.068 | inactive: -0.033 | inactive: 0.007 | inactive: -0.009 | inactive: -0.012 | inactive: -0.028 | inactive: -0.035 | inactive: 0.027 |
| CUX1 isoform 3 (UniProt P39880) | inactive: -0.016 | inactive: -0.006 | inactive: -0.034 | inactive: -0.076 | inactive: -0.028 | inactive: 0.034 | inactive: 0.019 | inactive: 0.046 | inactive: -0.022 | inactive: -0.004 |  |
| CUL5 (UniProt Q93034) | inactive: 0.035 | inactive: -0.031 | inactive: -0.043 | inactive: -0.001 | inactive: -0.018 | inactive: -0.001 | inactive: 0.041 | inactive: -0.011 | inactive: -0.016 | inactive: -0.016 | inactive: -0.017 |
| DCAF10 (UniProt Q5QP82) | inactive: -0.018 | inactive: -0.02 | inactive: 0.026 | inactive: 0.033 | inactive: -0.021 | inactive: -0.015 | inactive: 0.08 | inactive: 0.122 | inactive: -0.028 | active: 0.357 |  |
| CTSC (UniProt P53634) | inactive: 0.019 | inactive: -0.015 | inactive: -0.11 | inactive: 0.086 | inactive: -0.053 | inactive: -0.016 | inactive: 0.015 | inactive: -0.053 | inactive: -0.057 | inactive: 0.063 |  |
| CYFIP1 (UniProt Q7L576) | inactive: -0.088 | inactive: -0.029 | inactive: -0.143 | inactive: 0.003 | inactive: 0.02 | inactive: -0.025 | inactive: 0.031 | inactive: 0.009 | inactive: -0.039 | inactive: -0.064 |  |
| DAG1 (UniProt Q14118) | inactive: -0.035 | inactive: 0.123 | inactive: 0.081 | inactive: -0.054 | inactive: -0.013 | inactive: 0.023 | inactive: -0.015 | inactive: -0.005 | inactive: -0.015 | inactive: -0.001 |  |
| DCTN6 (UniProt O00399) | inactive: -0.011 | inactive: -0.012 | inactive: -0.031 | inactive: 0.01 | inactive: 0.001 | inactive: 0.05 | inactive: 0.038 | inactive: 0.011 | inactive: -0.069 | inactive: -0.11 | inactive: 0.017 |
| DCAF16 (UniProt Q9NXF7) | inactive: -0.122 | inactive: -0.109 | inactive: -0.09 | inactive: -0.036 | inactive: 0.02 | inactive: 0.004 | inactive: 0.07 | inactive: 0.082 | inactive: -0.09 | inactive: -0.041 |  |
| CTSL (UniProt P07711) | inactive: 0.082 | inactive: -0.045 | inactive: -0.123 | inactive: 0.039 | inactive: -0.074 | inactive: -0.053 | inactive: -0.018 | inactive: 0.027 | inactive: -0.079 | inactive: -0.011 |  |

Random excerpt: 2 records from the list

| Target | log2 fold change [1] | log2 fold change [2] | log2 fold change [3] | log2 fold change [4] | log2 fold change (entinostat) | log2 fold change (vorinostat) | log2 fold change (citarinostat) | log2 fold change (silmitasertib) | log2 fold change [5] | log2 fold change [6] | log2 fold change (entospletinib) |
| --- | --- | --- | --- | --- | --- | --- | --- | --- | --- | --- | --- |
| DCAF10 (UniProt Q5QP82) | inactive: -0.018 | inactive: -0.02 | inactive: 0.026 | inactive: 0.033 | inactive: -0.021 | inactive: -0.015 | inactive: 0.08 | inactive: 0.122 | inactive: -0.028 | active: 0.357 |  |
| DCTN6 (UniProt O00399) | inactive: -0.011 | inactive: -0.012 | inactive: -0.031 | inactive: 0.01 | inactive: 0.001 | inactive: 0.05 | inactive: 0.038 | inactive: 0.011 | inactive: -0.069 | inactive: -0.11 | inactive: 0.017 |
